Several values for one entry are separate records, joined by “and”; a condition that tells them apart may be missing. Equal entries are not always repeated. Screen size: about 400,000 compounds; about 3,700 (0.93%) were called active. The shares of active, inactive and inconclusive entries below differ from those in the screen. Calls come from the whole dose curve; as a rule, active = well fitted inhibition curve with a large enough effect; inconclusive = small, poorly fitted or top-dose-only effect, or another doubt; inactive = no such curve, though single readings can be large or run the other way. Potencies beside an inconclusive call are fits to weak or partial responses and may not hold up.
Target: Vitamin D3 receptor (Homo sapiens) (UniProt P11473)
Assay: Inhibitors of the vitamin D receptor (VDR): qHTS
Conditions: VDR-SRC2-3 peptide fluorescence polarization, 2 h; max response, negative = inhibition: hits give low values
In short: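 The screen uses fluorescence polarization to detect compounds that interfere with recruitment of the SRC2-3 coactivator peptide to VDR; plates are read after 2 h at room temperature.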
% is set by controls: 0 for no effect and ±100 for the full control effect; potency is the fitted concentration of half-maximal effect.

By UniProt entry, the sequences of proteins in these tests, tags left out. Where a name states a change or a piece, a line headed by the entry shows the natural chain unless it says otherwise.
UniProt P11473: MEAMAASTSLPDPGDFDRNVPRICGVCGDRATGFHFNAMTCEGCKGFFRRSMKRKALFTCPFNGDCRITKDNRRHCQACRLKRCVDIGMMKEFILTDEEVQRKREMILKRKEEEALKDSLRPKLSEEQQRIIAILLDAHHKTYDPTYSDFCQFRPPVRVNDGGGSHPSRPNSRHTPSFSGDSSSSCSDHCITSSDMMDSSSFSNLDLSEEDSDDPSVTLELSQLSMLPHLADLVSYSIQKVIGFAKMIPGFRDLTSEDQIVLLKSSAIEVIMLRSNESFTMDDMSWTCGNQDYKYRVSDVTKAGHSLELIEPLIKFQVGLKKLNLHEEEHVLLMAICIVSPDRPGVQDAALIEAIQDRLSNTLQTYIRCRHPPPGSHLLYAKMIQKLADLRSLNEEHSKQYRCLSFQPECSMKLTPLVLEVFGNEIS

| Structure (SMILES) | Potency | max response, negative = inhibition |
| --- | --- | --- |
| CCNc1ncc2ncc(=O)n(Cc3cccc(OC)c3)c2n1 | active: 50.1 µM |  |
| c1coc(-c2nc3ccccc3nc2-c2ccco2)c1 | inconclusive: 56.2 µM [inhibitor, partial curve, poor fit] |  |
| CCC(C(=O)NC1C(=O)N2C(C(=O)O)=C(CSc3nnc(C)s3)CSC12)c1ccccc1 (stereo not given) | inconclusive: 70.8 µM [inhibitor, single point] |  |
| COC(=O)c1ccc2c(=O)n(CCCCCC(=O)N3CCN(c4ccccc4)CC3)c(=O)[nH]c2c1 | inconclusive: 14.1 µM [inhibitor, full curve, poor fit] |  |
| O=C(CC1(O)C(=O)Nc2cc(Cl)cc(Cl)c21)c1ccccc1O (stereo not given) | inconclusive: 11.2 µM [inhibitor, partial curve, poor fit] |  |
| O=C(O)c1cccc(-n2sc3ccccc3c2=O)c1 | active: 7.08 µM |  |
| O=C(c1ccc(S(=O)(=O)NCc2ccco2)cc1)N1CCN(Cc2ccccc2)CC1 | inconclusive: 50.1 µM [inhibitor, partial curve] |  |
| O=C(O)c1cccnc1SCc1cn2cc(Br)ccc2n1 | inconclusive: 17.8 µM [inhibitor, single point] |  |
| Cc1csc(C(C)N(C)C(=O)c2ccc(OC3CCN(Cc4ccccn4)CC3)cc2)n1 (stereo not given) |  | inactive: -9.23% |
| O=C(N/N=C/c1ccccc1OC(=O)c1ccc2c(c1)OCO2)c1cccc(F)c1 |  | inactive: -16.3% |
| S=C(NN=Cc1ccc2c(c1)OCO2)NN=Cc1ccc2c(c1)OCO2 | inconclusive: 25.1 µM [inhibitor, partial curve, poor fit] |  |
| COc1ccc(OC)c(NC(=O)Nc2cc(NC(=O)Nc3cc(OC)ccc3OC)c(C)nc2C)c1 |  | inactive: -2.65% |
| O=C(NCC1CCCO1)c1ccc(C(=O)NCC2CCCO2)cc1 (stereo not given) |  | inactive: 2.2% |
| Cc1cc(Cl)ccc1NC(=O)CSc1n[nH]c(N)n1 |  | inactive: -6.86% |
| Nc1cc2nc3ccccc3oc-2cc1=O | inconclusive: 56.2 µM [inhibitor, partial curve, poor fit] |  |
| CC1=C(C)CS(=O)N(c2ccc(S(N)(=O)=O)cc2)C1 (stereo not given) | active: 7.94 µM |  |
| O=C(Nc1cccc(Cl)c1)C1CCN(C(=O)c2cccs2)CC1 | inconclusive: 89.1 µM [inhibitor, partial curve, poor fit] |  |
| CCOc1ccc(C(=S)NC2CCCCC2)cc1OCC | active: 39.8 µM |  |
| CCOC(=O)c1sc(NC(=O)/C=C/c2ccc(C(C)C)cc2)c(C(=O)OCC)c1C |  | inactive: -21.4% |
| O=C(Cn1cc(COc2ccccc2[N+](=O)[O-])nn1)c1ccc(O)cc1 | inconclusive: 56.2 µM [inhibitor, partial curve, poor fit] |  |
| O=C(Nc1ccc(OCc2ccccc2)cc1)c1ccccc1 | inconclusive: 89.1 µM [inhibitor, single point] |  |
| CCC(C)NC(=O)c1ccc2nc(-c3ccco3)c(-c3ccco3)nc2c1 (stereo not given) | active: 50.1 µM |  |

One compound at a time, from the list above:
O=C(N/N=C/c1ccccc1OC(=O)c1ccc2c(c1)OCO2)c1cccc(F)c1 in the list: max response, negative = inhibition: inactive: -16.3%
CCNc1ncc2ncc(=O)n(Cc3cccc(OC)c3)c2n1 in the list: Potency: active: 50.1 µM

Remaining list, next part

| Structure (SMILES) | Potency | max response, negative = inhibition |
| --- | --- | --- |
| Cc1ccc(S(=O)(=O)NC2CC(=O)N(c3ccc4c(c3)OCCO4)C2)cc1 (stereo not given) | inconclusive: 89.1 µM [inhibitor, partial curve, poor fit] |  |
| CN(Cc1ccco1)c1ccnc(-c2ccccc2C(F)(F)F)n1 | active: 44.7 µM |  |
| CN(C)S(=O)(=O)c1ccc(C(=O)Nc2nnc(-c3cccs3)o2)cc1 |  | inactive: -10.1% |
| COc1cc(C(c2c(C)[nH][nH]c2=O)c2c(C)[nH][nH]c2=O)cc(Br)c1OC | inconclusive: 89.1 µM [inhibitor, single point] |  |
| C#CC(=O)CC1(CN(Cc2ccccc2)C(=O)OC(C)(C)C)CCCCC1 | inconclusive: 56.2 µM [inhibitor, partial curve, poor fit] |  |
| CN(C)CCN(C(=O)c1ccc(S(=O)(=O)N(C)c2ccccc2)cc1)c1nc2cc3c(cc2s1)OCCO3 |  | inactive: 1.65% |
| COc1ccccc1Oc1nc2ccccn2c(=O)c1/C=C(\C#N)C(=O)Nc1c(C)n(C)n(-c2ccccc2)c1=O | inconclusive: 56.2 µM [inhibitor, partial curve, poor fit] |  |
| CCC1(C)Cc2c(sc3nc(SC)[nH]c(=S)c23)CO1 (stereo not given) | inconclusive: 89.1 µM [inhibitor, partial curve, poor fit] |  |
| C/C=C/Cn1c(SCc2ccc(C)cc2)nc2c1c(=O)[nH]c(=O)n2C | inconclusive: 89.1 µM [inhibitor, single point] |  |
| CCNc1ccc(Br)cc(C(=O)/C=C/c2ccccc2Cl)c1=O | active: 28.2 µM |  |
| NC1=C(Br)C(=O)c2ncccc2C1=O | inconclusive: 89.1 µM [inhibitor, single point] |  |
| C/C(CC(=O)Nc1cccc(Cl)c1Cl)=N\NC(=O)c1ccccc1Br | inconclusive: 89.1 µM [inhibitor, single point] |  |
| CCN1CCN(c2ccc(S(=O)(=O)N3CCOCC3)cc2NC(=O)/C=C/c2cccc(OC)c2OC)CC1 |  | inactive: -2.15% |
| CCOC(=O)CC(c1ccc([N+](=O)[O-])cc1)n1c(C)ccc1C (stereo not given) |  | inactive: -23% |
| COc1ccc(-n2c(=O)c(-c3cc(F)cc(F)c3)nc3cnc(N4CCOCC4)nc32)cc1 | inconclusive: 56.2 µM [inhibitor, partial curve, poor fit] |  |
| COc1ccc(NC(=O)/C(Cl)=C(/Cl)S(=O)(=O)Cc2ccccc2)cn1 | active: 35.5 µM |  |
| N#CC1=C(N)C2=CCCC[C@H]2[C@H](c2cccc(F)c2)C1(C#N)C#N | inconclusive: 56.2 µM [inhibitor, partial curve, poor fit] |  |
| COC(=O)c1cc(NC(=O)c2cccs2)ccc1N1CCOCC1 | inconclusive: 56.2 µM [inhibitor, single point] |  |
| CCOc1ccccc1-n1c(=S)sc2c(=O)n(-c3ccc(C)cc3)c(=S)[nH]c21 | inconclusive: 50.1 µM [inhibitor, partial curve, poor fit] |  |
| CC(C)CCNC(=O)c1onc(CSc2ccccn2)c1C(=O)NCCC(C)C | inconclusive: 63.1 µM [inhibitor, partial curve, poor fit] |  |
| CCN(CC(=O)Nc1ccc(NC(C)=O)cc1)C(=O)CCCSc1nc2ccccc2[nH]1 | inconclusive: 22.4 µM [inhibitor, partial curve, poor fit] |  |
| Cc1cc(C(=O)COC(=O)c2cc(O)c3ccccc3c2O)c(C)n1CC1CCCO1 (stereo not given) | active: 70.8 µM |  |

| Structure (SMILES) | Potency | max response, negative = inhibition |
| --- | --- | --- |
| CC1=NNC(=O)/C1=C\c1cn(-c2ccccc2)nc1-c1ccc(F)cc1 | active: 44.7 µM |  |
| Cc1ccc(CNc2cnn(C34CC5CC(CC(C5)C3)C4)c(=O)c2Cl)cc1 | inconclusive: 89.1 µM [inhibitor, single point] |  |
| Cc1cccc(-n2c(O)c(C=Nc3cc(O)ccc3C)c3ccccc3c2=O)n1 | inconclusive: 89.1 µM [inhibitor, single point] |  |
| Cc1ccc(S(=O)(=O)c2nnn3c2nc(N2CCCC2)c2sccc23)cc1C |  | inactive: -3.57% |
| Cc1cccc(CNc2ncncc2-c2ccccc2CN(C)C)c1 | inconclusive: 44.7 µM [inhibitor, partial curve, poor fit] |  |
| COc1ccc(Cc2nc3ccc(C(=O)N(C)C(C)c4ccon4)cc3o2)cc1 (stereo not given) |  | inactive: -4.94% |
| Cc1[nH]nc(C(F)(F)F)c1N=NN1CCOCC1 | inconclusive: 89.1 µM [inhibitor, single point] |  |
| Cc1sc(N/N=C/c2cccnc2)nc1-c1ccccc1 |  | inactive: -6.98% |
| COc1ccccc1CNc1ccnc(-c2ccc3c(c2)OCO3)n1 | inconclusive: 22.4 µM [inhibitor, partial curve, poor fit] |  |
| O=C(c1ccncc1)N1CCC2(CCCN(C(c3ccccc3)c3ccccc3)C2)CC1 | inconclusive: 50.1 µM [inhibitor, partial curve] |  |
| Cc1ccc2c(c1)N(C(=O)CCC(=O)Nc1ccc(F)cc1F)CC(C)O2 (stereo not given) |  | inactive: -10.3% |
| O=C(Nc1c(Cl)cc([N+](=O)[O-])cc1Cl)c1cc(Cl)cc(Cl)c1O | inconclusive: 89.1 µM [inhibitor, partial curve, poor fit] |  |
| O=C(NCc1ccc(F)cc1)C1CCC(CNS(=O)(=O)c2ccccc2)CC1 (stereo not given) | inconclusive: 79.4 µM [inhibitor, single point] |  |
| CCOC(=O)C1=C(C)c2ccccc2N(C(=O)OC)C1(C)C(=O)OCC (stereo not given) | inconclusive: 70.8 µM [inhibitor, partial curve] and inconclusive: 79.4 µM [inhibitor, single point] |  |
| CC12CCC=CC1C(c1ccc3ccccc3c1)N(Cc1ccccc1)C2=O (stereo not given) | inconclusive: 100 µM [inhibitor, partial curve, poor fit] |  |
| COc1ccc(C=CC(=O)c2c(OC)cc(OC)c(OC)c2O)cc1 | inconclusive: 50.1 µM [inhibitor, partial curve, poor fit] |  |
| C=CCn1c(CCNC(=O)c2cccs2)nnc1SCC(=O)c1ccc(Br)cc1 | inconclusive: 79.4 µM [inhibitor, partial curve] |  |
| O=C(Nc1nc2ccc(F)cc2s1)c1nc(SCc2ccccc2F)ncc1Cl |  | inactive: -2.57% |
| CC1CCc2c(sc(NC(=O)c3ccc(Cn4cc([N+](=O)[O-])cn4)o3)c2C#N)C1 (stereo not given) | inconclusive: 10 µM [inhibitor, partial curve, poor fit] |  |
| N/C(=N\c1nc2ccccc2o1)NC(=O)c1ccc(F)cc1 |  | inactive: 5.88% |
| CCN1CCC(Nc2ccnc3cc(Cl)ccc23)CC1 |  | inactive: -4.76% |

Some of the entries so far, with bars between the fields:
Structure (SMILES) | Potency | max response, negative = inhibition
Cc1[nH]nc(C(F)(F)F)c1N=NN1CCOCC1 | inconclusive: 89.1 µM [inhibitor, single point] | 
Cc1sc(N/N=C/c2cccnc2)nc1-c1ccccc1 |  | inactive: -6.98%

Source: PubChem BioAssay AID504847 (National Center for Advancing Translational Sciences (NCATS), 2011)
